{"sequences": {"note": "By UniProt entry, the sequences of proteins in these tests, tags left out. Residues count along the entry.", "UniProt Q12306, residues 13-98": "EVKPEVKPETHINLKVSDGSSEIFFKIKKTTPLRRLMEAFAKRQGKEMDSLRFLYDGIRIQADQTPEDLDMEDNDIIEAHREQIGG"}, "source": "paper PMC9898758", "about": "“Analysis of a degron-containing reporter protein GFP-CL1 reveals a role for SUMO1 in cytosolic protein quality control” (The Journal of Biological Chemistry, 2022)", "biological_target": "T1, MBP-Slx5 (UniProt P32828 1-619)", "T1 construct": "Plasmid was a gift from Dr Oliver Kerscher; also called MBP-tagged SLX5; source: E. coli Rosetta, purified (amylose resin)", "T1 sequence (looked up)": "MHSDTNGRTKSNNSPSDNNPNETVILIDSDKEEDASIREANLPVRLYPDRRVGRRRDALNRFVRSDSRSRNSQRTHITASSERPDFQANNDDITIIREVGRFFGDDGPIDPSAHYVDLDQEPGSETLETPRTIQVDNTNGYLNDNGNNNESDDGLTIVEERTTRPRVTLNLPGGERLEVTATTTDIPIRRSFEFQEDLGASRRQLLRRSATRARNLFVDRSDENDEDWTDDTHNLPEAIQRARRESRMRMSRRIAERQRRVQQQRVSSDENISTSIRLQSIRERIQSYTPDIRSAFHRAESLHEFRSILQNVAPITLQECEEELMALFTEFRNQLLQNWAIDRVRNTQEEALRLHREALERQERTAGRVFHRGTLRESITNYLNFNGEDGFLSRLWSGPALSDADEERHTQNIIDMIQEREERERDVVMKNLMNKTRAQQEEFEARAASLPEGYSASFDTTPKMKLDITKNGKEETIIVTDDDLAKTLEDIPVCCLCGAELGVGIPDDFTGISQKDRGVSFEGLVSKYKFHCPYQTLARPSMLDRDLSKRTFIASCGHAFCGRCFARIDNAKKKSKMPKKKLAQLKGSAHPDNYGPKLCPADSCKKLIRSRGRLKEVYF", "test": "pull-down; MBP-Slx5 or MBP alone immobilised on amylose beads, incubated with purified GST, GST-Smt3 or GST-Smt3-K38/40A; washes, SDS-PAGE, immunoblot with anti-MBP and anti-GST; both purified", "note": "No constants are given. Whether binding was seen depends on the method and setting. Some binding calls cover weakened binding; strength is not graded here. Tags and fused reporters may be left off the sequences shown."}
{"substance": "GST-tagged WT Smt3 (from UniProt Q12306 13-98)", "values": [{"measurement": "binding", "value": "binds"}]}
